From ChEMBL document CHEMBL3988442, “University of Dundee, Small-Polar-MMV Screening Library” (2021).

Mtb cholesterol medium: 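Phenotypic screen: M. tuberculosis growth, cholesterol and DPPC medium, 4 days; the read-out is not stated. Concentration: 50 µM. Higher reads as more growth inhibition (inferred: compounds with an IC50 in retests scored well above the rest). About 69,000 compounds were tested under these conditions; 0.54% (about 370) showed 50% or more at least once.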
Mtb glucose medium: 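Growth of Mycobacterium tuberculosis over 3 days (7H9 medium with glucose and tyloxapol); the read-out is not stated. Concentration: 50 µM. Direction is inferred from retests: higher values go with more growth inhibition. About 69,000 compounds were tested under these conditions; 1.1% (about 760) showed 50% or more at least once.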

Each number is a percent effect as filed.
The controls that fix the scale are not given in the record; negative values are as filed.
Compounds were drawn at random from those tested, without regard to their results.
Two or more numbers in one place are separate tests of the same structure; such repeats can differ widely.

| structure | Mtb cholesterol medium | Mtb glucose medium |
|---|---|---|
| `CC(O)CC(C)(C)CNS(=O)(=O)c1cccc(Cl)c1C#N` (stereo not given) | 17.74 | 37.36 |
| `[H][C@@]12CS(=O)(=O)C[C@]1([H])N(Cc1nccn1C)CCN2CC1CC1` | 9.658 | -13.67 & -3.054 |
| `Cc1ccc(C(=O)O)cc1NC(=O)C1CC=CC1` | -19.99 | -12.06 |
| `Cc1noc(C)c1CN1CCn2cc(CNC(=O)C3CCC3)nc2C1.O=C(O)C(F)(F)F` | -4.937 | -8.151 & -23.01 |
| `COc1cccc(COCC(=O)NC(C)c2nnc3n2CCC3)c1` (stereo not given) | -6.199 | -26.57 |
| `CC(C(=O)NCc1cccs1)N1CCN(Cc2nccn2C)CC1` (stereo not given) | -15.26 | -23.59 & -5.825 |
| `CCOCCN1CCN(CCc2ccc3c(c2)CCO3)CC1` | -50.47 | 2.21 & 1.613 |
| `O=C(O)C(F)(F)F.O=C(O)C(F)(F)F.[H][C@@]12CN(Cc3ccncc3)C[C@]1([H])[C@@H]2CC(=O)N1CCCC1` | -14.51 | -23.21 |
| `CN(C)c1ccc(NC(=O)NCc2ccccn2)cn1` | -36.35 | -25.05 |
| `[H][C@]12CC[C@]([H])(CN(CC(=O)N(C)C)C1)N(C(=O)c1cccnc1SC)C2` | -47.06 & -15.15 | -38.47 |
| `O=C(CC1OCCc2ccccc21)NCCn1cccc1` (stereo not given) | -7.069 | -10.24 |
| `Cn1ncc(N2CCOC(CCNC(=O)CO)C2)cc1=O` (stereo not given) | -24.1 & -13.37 | -18.78 |
| `CCc1ncc(C(=O)NCC2CCN(Cc3ccncc3)CC2)cn1` | 9.905 | 15.25 |
| `CC(C)c1ccc(OCCNC(=O)N2CCS(=O)(=O)CC2)cc1` | -3.02 | 0.3717 |
| `CCS(=O)(=O)N1CCC2(CC1)CN(c1ccsc1)C(=O)CO2` | 11.36 & 15.73 | 9.006 |
| `CCOc1ccc(NC2CCN(C3CC3)C2=O)cn1` (stereo not given) | -38.21 | -98.13 |
| `Cc1ncsc1C(=O)NC1CCN(CCCC#N)CC1` | 5.168 | 3.484 |
| `NC1CCN(S(=O)(=O)c2ccc(C(=O)N3CCSCC3)cc2)C1` (stereo not given) | 0.05072 | 14.9 & -6.974 |
| `COC1CCN(CCNc2ncc(Br)cc2C)CC1` | 4.916 | -8.76 |
| `COCCOc1cccc(CNCc2ccc(-n3cncn3)nc2)c1` | -9.668 | -31.01 |
| `O=C(O)C(F)(F)F.O=C(O)C(F)(F)F.O=C(O)C(F)(F)F.O=C(O)C(F)(F)F.[H][C@]12CC(Cn3cccn3)N(C)[C@@]1([H])CCN(Cc1cccnc1)C2` (stereo not given in full) | -22.7 | -33.08 |
| `CCCc1n[nH]c(C2CN(C(=O)CCCn3cccn3)CCO2)n1` (stereo not given) | 6.33 | -7.565 & 3.437 |
| `Cc1nc(CN2CCc3ncnc(-c4ccccc4)c3CC2)cs1.O=C(O)C(F)(F)F` | -18.89 | 6.298 |
| `Cc1nc(O)c2nnn(C[C@H]3CCCN3C(=O)c3cccs3)c2n1` | -5.425 | 12.9 |
| `CN(C)c1ncc2c(n1)C1(CCN(Cc3cccnc3)C1)COC2` (stereo not given) | 20.05 | 35.01 & 5.195 |
| `CN(C)c1ccccc1CN1CCCCC1CNS(C)(=O)=O` (stereo not given) | -1.263 | 4.972 |
| `Cc1cc(C)n(C(=O)c2cn(C)nc2S(=O)(=O)N2CCSCC2)n1` | 14.79 | 17.69 |
| `CCN(Cc1ccccc1C)S(C)(=O)=O` | 6.412 | 24.86 |
| `O=C(O)C(F)(F)F.c1cnc(NCc2nnn3c2CN(CC2CC2)CCC3)nc1` | 6.846 | 15.6 |
| `CCOc1ccccc1C(=O)N1CCCC(c2nccn2CCOC)C1` (stereo not given) | -22.7 | -22.41 & -5.777 |
| `CNC(=O)COC1COC2(CCN(c3cnccn3)CC2)C1.O=C(O)C(F)(F)F` (stereo not given) | 21.34 | 10.87 & -1.693 |
| `[H][C@@]12CCCO[C@]1([H])[C@H](NS(C)(=O)=O)CN(Cc1ccoc1)C2` | -5.842 | 15.73 & -2.962 |
| `O=C(c1cccc(F)c1)N1CCCN(Cc2cscn2)CC1` | -24.48 | -28.77 |
| `Cc1ccc(S(=O)(=O)NC(=O)CCC2CCCO2)cc1` (stereo not given) | -26.91 | -7.023 |
| `[H][C@]12CC[C@]([H])(CN(c3ncccn3)C1)N(CC=C(C)C)C2=O` | -6.783 | 4.022 |
| `O=C(Nc1cccnc1N1CCSCC1)c1ccc2c(c1)OCO2` | -18.44 | -24.5 |
| `CCn1nc(C)c2c1cnn2CCNS(=O)(=O)CC` | 5.099 | -1.736 |
| `O=C(O)C(F)(F)F.O=C(O)C(F)(F)F.[H][C@@]12CCN(Cc3ccccn3)[C@]1([H])CC[C@H](C(=O)N(C)C)O2` | -0.3848 | -20.19 & -10.1 |
| `Cc1cc(CNC(=O)CCc2c(C)nc3cc(O)nn3c2C)no1` | -2.458 | 5.498 |
| `Cc1ccc(C(=O)N2CC(C(N)=O)O[C@H](C)C2)c(C)c1` (stereo not given in full) | -11.08 | -16.51 |
| `CCN(Cc1ccoc1)C(=O)NC1CCN(CC=C(C)C)CC1` | 15.85 | 27.35 |
| `CC(=O)c1cc(CC(=O)NCc2ccc(F)cc2)cs1` | 8.744 | 5.062 |
| `Cn1c(C(F)(F)F)nn(CCNC(=O)CCc2ccccc2)c1=O` | 1.356 | -12.72 |
| `[H][C@@]12CCN(Cc3cc(C)on3)C[C@@]1([H])O[C@H](c1nc(C)cs1)C2` | -3.996 | 4.871 |
| `COc1ccc2nc(CCNC(=O)c3cc(CC(C)C)no3)[nH]c2c1` | 5.159 | 7.362 |
| `Cc1ccc(CN2CCc3onc(C(=O)Nc4cccnc4)c3C2)o1.O=C(O)C(F)(F)F.O=C(O)C(F)(F)F` | -0.4077 | -5.877 |
| `CCN(C)C[C@@H]1CN(S(=O)(=O)c2ccc(C#N)cc2)C[C@@H]1CO` | -7.194 & -11.75 | 7.397 |
| `COc1ccc(CN2CCN(c3ncc(Cl)cn3)CC2)cc1` | 27.28 | 5.508 |
| `CN(Cc1ccco1)C1COC2(CCN(Cc3nccs3)CC2)C1.O=C(O)C(F)(F)F.O=C(O)C(F)(F)F` (stereo not given) | 6.662 | -12.52 |
| `Cn1cc(CCNCc2cc(Br)c3c(c2)OCO3)cn1` | -8.048 | -6.139 |
| `COc1ccc(CC(=O)N(C)c2cccnc2N(C)C)c(Cl)c1` | -13.47 | 27.34 |
| `O=C(NCc1cc2ccccc2[nH]1)C1CCCN(C(=O)N2CCCC2)C1` (stereo not given) | 17.38 | 24.29 |
| `CS(=O)(=O)Nc1ccc2c(c1)NC(=O)CC2c1cnn2cccnc12` (stereo not given) | -41.39 | -66.3 |
| `O=c1c2cnc(N3CCCC3)nc2ccn1-c1cccc(C(F)(F)F)c1` | -0.6317 & 23.84 | 28.19 |
| `COc1cccc2sc(N(C)CC(=O)NCc3nc(C)no3)nc12` | -1.839 | 2.558 & -16.98 |
| `CN(C)C(=O)CN1CCCN(CC2CCOc3ccccc3C2)CC1` (stereo not given) | -6.549 | 26.7 & 11.8 |
| `COc1cc(CNCc2ccco2)ccc1OCCO.Cl` | -17.24 | 3.538 |
| `Cc1[nH]c2ccc(CNc3cc(C#N)ccn3)cc2c1C` | 27.13 | 5.447 |
| `O=C(c1ccn[nH]1)N1CCCC(n2cncn2)C1` (stereo not given) | -7.341 | 0.6269 |
| `CCCN1CCN(CC(O)c2ccc(OC(F)(F)F)cc2)CC1` (stereo not given) | 2.885 | 21.06 |
| `CN(C)c1ccc(CC2CCCN(c3cnccn3)C2)nn1` (stereo not given) | -0.9759 | -10.59 |
| `[H][C@@]12CCN(C(=O)c3cccnc3OC)C[C@@]1([H])O[C@H](c1noc(C)n1)C2` | -25.68 | 0.7486 |
| `Cc1ccc(CN2CCOCC3(C2)CN(c2ccc(C)s2)C(=O)CO3)o1.O=C(O)C(F)(F)F` (stereo not given) | -13.92 & 4.593 | -16.26 & -2.553 |
| `CCOC(=O)CN1CCC2(CCCN(CCOc3ccccc3)C2)C1` (stereo not given) | 1.394 & -3.923 | 0.5119 |
| `CO[C@@H]1CN(c2ccccc2)S(=O)(=O)[C@@]12CCN(S(C)(=O)=O)C2` | -12.85 | 0.007184 |
| `Cc1cc(C(=O)N2CCC3(C2)CN(c2ccsc2)C(=O)CN3C)[nH]n1.O=C(O)C(F)(F)F` (stereo not given) | -14.7 | 10.59 |
| `CC(C)NC(=O)C1CN(C(=O)Nc2ccccc2)CC12CCOCC2` (stereo not given) | -29.05 | -26.52 |
| `CC(C)COCc1cncc2c1CCN(C(=O)c1cscn1)C2.O=C(O)C(F)(F)F` | -28.88 | -6.593 |
| `O=C(O)CC[C@@H]1CN(c2ncnc3[nH]ccc23)CC[C@@H]1N1CCOCC1` | -4.485 | -3.245 |
| `O=S(=O)(c1cc(F)ccc1F)n1cc(Cl)cn1` | 32.78 | 26.79 |
| `CC(Cc1cnccn1)NC(=O)COc1ccc(F)cc1F` (stereo not given) | -24.93 | -25.68 & 4.011 |
| `CC1(C(=O)N2CCN(c3ncccn3)CC2)CNCCO1` (stereo not given) | -4.491 & 5.744 | 1.947 |
| `O=C(O)C(F)(F)F.O=C(O)C(F)(F)F.O=C(O)c1cc2c(nc1NCC1CC1)CCN(C1CCOC1)CC2` (stereo not given) | -8.836 & 11.09 | -5.502 & 8.999 |
| `COc1ccc(-c2nccn2CCN2CCCCC2)c(OC)c1OC` | -20.37 | -36.9 |
| `O=C(Cc1ccccc1)N1CC(=O)N(Cc2ccco2)CC(O)C1` (stereo not given) | -5.642 | -5.041 |
| `O=C(Nc1ccc(F)c(F)c1)N1CCC2(CCC(=O)N(C3CC3)C2)CC1` | 7.224 | 0.2011 |
| `CCCc1nc(C)c(CN2CC3(CCOC3)CCC2=O)s1` (stereo not given) | 13.57 | 18.41 |
| `Cc1n[nH]c(C)c1C1CCCN1C(=O)NCCSC(C)(C)C` (stereo not given) | -7.548 | -6.701 & -12.25 |
| `O=c1[nH][nH]cc1-c1ccnc(NCCc2cccnc2)n1` | -1.475 | 14.79 |
| `Cc1cc(NC(=O)NCC2(O)CCCC2)ccn1` | 8.415 | 6.287 |
| `Cc1cc(C(F)(F)F)nn1CC(C)C(=O)NC(C)C` (stereo not given) | 16.08 | -10.3 |

Once more, the final 7:

structure,Mtb cholesterol medium,Mtb glucose medium
O=C(Cc1ccccc1)N1CC(=O)N(Cc2ccco2)CC(O)C1 (stereo not given),-5.642,-5.041
O=C(Nc1ccc(F)c(F)c1)N1CCC2(CCC(=O)N(C3CC3)C2)CC1,7.224,0.2011
CCCc1nc(C)c(CN2CC3(CCOC3)CCC2=O)s1 (stereo not given),13.57,18.41
Cc1n[nH]c(C)c1C1CCCN1C(=O)NCCSC(C)(C)C (stereo not given),-7.548,-6.701 & -12.25
O=c1[nH][nH]cc1-c1ccnc(NCCc2cccnc2)n1,-1.475,14.79
Cc1cc(NC(=O)NCC2(O)CCCC2)ccn1,8.415,6.287
Cc1cc(C(F)(F)F)nn1CC(C)C(=O)NC(C)C (stereo not given),16.08,-10.3